Source: PubChem BioAssay AID1053133 (Broad Institute, 2014).

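Plate-reader measure of the Venus reporter marking one vaccinia stage in infected cells (the cell line is not named here); read time unknown. The test concentration is not given here. Percent change in Venus reporter signal; lower (more negative) values mean stronger inhibition of that viral stage.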

Values are in %. The controls that fix the scale are not given here. Common to all entries: measured here: Venus reporter, other viral stage. Part of the compounds only, not a random draw; the main read-out is not listed here.

| Compound | activity change (Venus) (%) |
|---|---|
| `C[C@@H]1CCCCO[C@@H](CN(C)C(=O)Nc2ccc(C(F)(F)F)cc2)[C@H](C)CN([C@H](C)CO)C(=O)c2cc(NC(=O)c3ccncc3)ccc2O1` | -38.91 |
| `Cc1ccccc1-c1ccc2c(c1)O[C@@H](CN(C)C(=O)Nc1ccc(C(F)(F)F)cc1)[C@@H](C)CN([C@@H](C)CO)S2(=O)=O` | -38.05 |
| `C[C@@H]1CN([C@H](C)CO)C(=O)CCCn2nncc2CO[C@@H]1CN(C)Cc1ccc(Oc2ccccc2)cc1` | -47.83 |
| `O=C(Nc1ccccc1)N1CCCCN2[C@@H](CO)[C@H](c3ccc(C#Cc4ccccc4)cc3)[C@@H]2C1` | -70.11 |
| `C[C@@H]1CN([C@@H](C)CO)C(=O)c2cc(NC(=O)NC3CCCCC3)ccc2O[C@@H](C)CCCCO[C@H]1CN(C)C(=O)NC1CCCCC1` | -28.52 |
| `Cc1ccc(S(=O)(=O)Nc2ccc3c(c2)C(=O)N([C@H](C)CO)C[C@H](C)[C@H](CN(C)C(=O)C2CCCCC2)OCCCC[C@H](C)O3)cc1` | -67.86 |
| `O=C(C[C@H]1C[C@@H]2c3cc(NC(=O)Nc4ccc(C(F)(F)F)cc4)ccc3O[C@@H]2[C@@H](CO)O1)NCc1cccnc1` | -31.15 |
| `C[C@@H]1CN([C@H](C)CO)C(=O)c2c(c3ccccc3n2C)-c2ccccc2CO[C@@H]1CN(C)Cc1ccc(Cl)c(Cl)c1` | -38.4 |
| `CC(C)CC#Cc1ccc2c(c1)O[C@H](CN(C)Cc1ccccc1F)[C@@H](C)CN([C@@H](C)CO)S2(=O)=O` | -60.19 |
| `C[C@H](CO)N1C[C@H](C)[C@H](CN(C)Cc2ccc(Oc3ccccc3)cc2)Oc2ccc(NC(=O)CCCCCC(=O)Nc3ccccc3N)cc2CC1=O` | -57.6 |
| `COc1ccc(NC(=O)Nc2ccc3c(c2)C(=O)N([C@H](C)CO)C[C@H](C)[C@H](CN(C)Cc2ccc4c(c2)OCO4)OCCCC[C@H](C)O3)cc1` | -52.15 |
| `C[C@H]1CN([C@@H](C)CO)C(=O)c2cccc(NC(=O)Nc3ccccc3)c2O[C@H]1CN(C)C(=O)Nc1cccc2ccccc12` | -34.41 |
| `CC(=O)N1CCCCN2[C@H](C1)[C@H](c1ccc(C#Cc3ccccc3F)cc1)[C@@H]2CO` | -97 |
| `O=C(c1ccc(F)cc1)N1CCCCN2[C@@H](CO)[C@@H](c3ccc(-c4ccccc4)cc3)[C@@H]2C1` | -67.32 |
| `COc1cccc(S(=O)(=O)N2C[C@@H]3N[C@H](C2)C3c2ccc(-c3cccc(C(=O)N(C)C)c3)cc2)c1` (some centres not stated) | -82.06 |
| `COc1cccc(CN2[C@H](CO)[C@H]3c4ccccc4N(C(=O)CC(F)(F)F)C[C@H]32)c1` | -55.32 |
| `COc1ccccc1C#Cc1ccc([C@H]2[C@H](C#N)N(C(=O)C3CCCC3)[C@H]2CO)cc1` | -52.83 |
| `COc1ccc(-c2ccc([C@H]3[C@@H](CO)N4CCCCN(C(=O)c5ccc6c(c5)OCO6)C[C@H]34)cc2)cc1` | -68.02 |
| `O=C(C[C@H]1CC[C@@H]2[C@H](COC[C@@H](O)CN2S(=O)(=O)c2ccc(Oc3ccccc3)cc2)O1)Nc1ccccc1` | -30.2 |
| `CC(C)C#Cc1ccc2c(c1)O[C@H](CN(C)C(=O)Nc1ccccc1)[C@H](C)CN([C@H](C)CO)S2(=O)=O` | -52.28 |
| `COc1ccccc1S(=O)(=O)N1C[C@@H]2N[C@H](C1)C2c1ccc(-c2cccc(C)c2)cc1` (some centres not stated) | -54.12 |
| `COc1cccc(-c2ccc3c(c2)[C@H]2[C@H](CCN2C(=O)c2cnccn2)[C@H](CO)N3)c1` | -30.11 |
| `C[C@@H]1CN([C@@H](C)CO)C(=O)Cc2cc(NS(=O)(=O)c3ccc(F)cc3)ccc2O[C@H]1CN(C)CC1CCCCC1` | -58.22 |
| `C[C@@H]1CN([C@@H](C)CO)C(=O)c2c(c3ccccc3n2C)-c2ccccc2CO[C@H]1CN(C)S(=O)(=O)c1cccs1` | -32.91 |
| `Cc1ccccc1S(=O)(=O)N(C)C[C@@H]1OCc2ccccc2-c2c(n(C)c3ccccc23)C(=O)N([C@@H](C)CO)C[C@@H]1C` | -62.8 |
| `O=C1CN(S(=O)(=O)c2cccc(F)c2)C[C@H]2[C@@H](c3ccc(-c4ccc(F)cc4)cc3)[C@H](CO)N12` | -25.11 |
| `COCC#Cc1ccc2c(c1)O[C@@H](CN(C)Cc1ccc(F)cc1)[C@H](C)CN([C@H](C)CO)S2(=O)=O` | -31.17 |
| `CN1c2ccc(-c3ccc(F)cc3)cc2[C@H]2[C@H](CCN2C(=O)C2CCOCC2)[C@H]1CO` | -37.37 |
| `C[C@@H]1CN([C@@H](C)CO)C(=O)c2c(c3ccccc3n2C)-c2ccccc2CO[C@H]1CN(C)C(=O)N[C@H](C)c1ccccc1` | -31.82 |
| `COc1ccc(S(=O)(=O)N(C)C[C@H]2Oc3c(NC(=O)C4CCCCC4)cccc3C(=O)N([C@@H](C)CO)C[C@H]2C)cc1` | -55.91 |
| `C[C@@H]1CN([C@@H](C)CO)S(=O)(=O)c2ccc(-c3ccc(C(=O)N(C)C)cc3)cc2O[C@H]1CN(C)Cc1ccc2c(c1)OCO2` | -43.31 |
| `C[C@@H]1CN([C@@H](C)CO)C(=O)c2cc(NC(=O)Nc3ccc4c(c3)OCO4)ccc2O[C@@H]1CN(C)Cc1ccc(-c2ccccc2)cc1` | -24.59 |
| `CN(C)C(=O)C[C@@H]1CC[C@@H]2[C@H](COC[C@@H](O)CN2Cc2ccc(C(F)(F)F)cc2)O1` | -22.97 |
| `C[C@@H]1CN([C@@H](C)CO)C(=O)c2cc(NC(=O)Nc3ccccc3)ccc2O[C@H]1CN(C)Cc1ccc(Oc2ccccc2)cc1` | -35.91 |
| `Cc1ccc(S(=O)(=O)N[C@@H]2CC[C@H](CC(=O)NCc3ccc(Cl)c(Cl)c3)O[C@@H]2CO)cc1` | -30.18 |
| `C[C@@H]1CN([C@H](C)CO)C(=O)c2cc(NC(=O)Nc3ccc(F)cc3)ccc2O[C@@H](C)CCCCO[C@H]1CN(C)Cc1ccccc1` | -86.21 |
| `C[C@H](CO)N1C[C@H](C)[C@H](CN(C)C(=O)NC2CCCCC2)Oc2ncc(-c3cccc(C(F)(F)F)c3)cc2C1=O` | -52.8 |
| `COc1ccc(-c2ccc3c(c2)O[C@@H](CN(C)C(=O)Nc2ccccc2F)[C@@H](C)CN([C@@H](C)CO)S3(=O)=O)cc1` | -33 |
| `C[C@@H]1CN([C@H](C)CO)C(=O)c2c(c3ccccc3n2C)-c2ccccc2CO[C@H]1CN(C)C(=O)Nc1cccc(Cl)c1Cl` | -29.61 |

Repeated from the top, 3 entries:

{"compound": "C[C@@H]1CCCCO[C@@H](CN(C)C(=O)Nc2ccc(C(F)(F)F)cc2)[C@H](C)CN([C@H](C)CO)C(=O)c2cc(NC(=O)c3ccncc3)ccc2O1", "activity change (Venus) (%)": "-38.91"}
{"compound": "Cc1ccccc1-c1ccc2c(c1)O[C@@H](CN(C)C(=O)Nc1ccc(C(F)(F)F)cc1)[C@@H](C)CN([C@@H](C)CO)S2(=O)=O", "activity change (Venus) (%)": "-38.05"}
{"compound": "C[C@@H]1CN([C@H](C)CO)C(=O)CCCn2nncc2CO[C@@H]1CN(C)Cc1ccc(Oc2ccccc2)cc1", "activity change (Venus) (%)": "-47.83"}